Measurements published in paper PMC11274643, “Design, Synthesis, Characterization, and Cytotoxicity of New Pyrazolylmethylene-2-thioxoimidazolidin-4-one Derivatives towards Androgen-Sensitive LNCaP Prostate Cancer Cells” (Biomolecules, 2024).

Tests used:
[1] = system: AR+LNCaP androgen-sensitive human prostate cancer cell line; assay: MTT cytotoxicity assay in presence of 1 nM DHT, 48 h incubation; format: cell-based; conditions: IC50 normal cells / IC50 cancer cells
Experimental: The antitumor properties of pyrazolylmethylene-2-thioxoimidazolidin-4-one derivatives (3a–p) against androgen-sensitive (AR^+LNCaP; ATCC CRL-1740, Accession: CVCL_0395) and androgen-insensitive (AR^-PC-3; ATCC CRL-1435, Accession: CVCL_D5ZS) human prostate cancer cell lines in addition to normal human lung fibroblast cell line (Wi38, Accession: CVCL_2759) were evaluated by MTT assay. AR^+LNCaP, AR^-PC-3, and Wi38 cell lines were purchased frozen in liquid nitrogen from Egyptian Company for Production of Vaccines, Sera and Drugs, Cairo, Egypt (VACSERA). Tumor cell lines were stored as monolayer cultures in DMEM supplemented with 10% FBS and 1% penicillin–streptomycin. MTT assay was carried out as described previously in the literature. In brief, AR^+LNCaP, AR^-PC-3, and Wi38 cells were cultured into 96-well plates containing 100 µL of culture medium per each well. […] A control containing only culture medium was also applied. The assay was performed in triplicate. The cells were incubated overnight to grow at 37 °C in 5% CO2. After removing the growth medium, 100 µL of MTT (0.4 mg/mL of PBS) were added. After 24 h of incubation, the supernatant was removed and 100 µL of DMSO (Sigma Aldrich, Germany) were then added to each sample. Absorbance at 550 nm was measured. The formula (Reading of extract/Reading of negative control) × 100 was applied to calculate the viability percentage. The IC50 value of test compounds (3a–p) was also determined using CPE measurements of normal Wi38 cells (normal human lung fibroblast cells). The MTT assay was repeated with the test compounds (3i, 3k, 3o, 3j, 3p, and 3m) using the three cell types which were stimulated by 1 nM DHT after 48 h of incubation. IC50 values were estimated using Graph Pad Prism computer software (International Scientific Community, San Diego, CA, USA) from linear regression analysis of the concentration–response curves plotted for each tested compound [36].
The assay was performed in the presence of dihydrotestosterone (1 nM DHT) for 48 h of incubation as previously described. DHT is a potent inducer of androgens that enhances prostate cancer disease progression.

[2] = system: AR+LNCaP cells; assay: Cell apoptosis assay (Annexin V-FITC, flow cytometry); format: cell-based, human; conditions: IC50 concentration, 1 nM DHT
Experimental: Cell apoptosis assay was performed to ensure the efficacy of compounds 3i and 3k against the progression of AR^+LNCaP tumor cell growth in the presence of 1 nM DHT. Untreated AR^+LNCaP and Enzalutamide-treated AR^+LNCaP were used in this assay as negative and positive controls, respectively. AR^+LNCaP cells were precultured in 25 cm^2 flasks. Briefly, 1 nM DHT was then added to the growing cells. […] AR^+LNCaP cells were harvested and fixed with 70% (v/v) ethanol in FBS (Sigma-Aldrich, Germany), then maintained at 4 °C overnight. The cells were resuspended in FBS containing 0.1% (v/v) Triton X-100, 40 µg/mL […], and 0.1 mg/mL RNase then incubated in a dark chamber at 37 °C for 30 min. A flow-cytometer (Becton Dickinson, San Jose, CA, USA) supplemented with an argon ion laser at a wavelength of 488 nm was used to analyze the AR^+LNCaP cell apoptotic stages. Based on the protocol described by Ozgur et al. (2003), analysis of the data was implemented using Multicycle Software (Phoenix Flow Systems, San Diego, CA, USA; http://www.phoenixflow.com/index.html).
The active compounds 3i and 3k were further analyzed to evaluate their antitumor properties against the growth of the AR^+LNCaP prostate cancer cell line. […] Untreated AR^+LNCaP cells and Enzalutamide reference drug were also used as negative and positive controls in this assay, respectively.

**Q.** Which “Safety Index Wi38/LNCaP” value [1] does the source give for `O=C1NC(=S)NC1=Cc1cn(-c2ccc(F)cc2)nc1-c1ccc(Cl)cc1` [Compound 3i, 5-((3-(4-Chlorophenyl)-1-(4-fluorophenyl)-1H-pyrazol-4-yl)methylene)-2-thioxoimidazolidin-4-one] here?
**A.** The value was 3.6.

**Q.** With `O=C1NC(=S)NC1=Cc1cn(-c2ccc(F)cc2)nc1-c1ccc(Br)cc1` [Compound 3j, 5-((3-(4-Bromophenyl)-1-(4-fluorophenyl)-1H-pyrazol-4-yl)methylene)-2-thioxoimidazolidin-4-one] as the compound, how does the “Safety Index Wi38/LNCaP” value [1] read?
**A.** Its value is 2.7.

**Q.** Which “fold increase in the percentage of early apoptotic cells compared to Enzalutamide” value [2] does the source give for `O=C1NC(=S)NC1=Cc1cn(-c2ccc(F)cc2)nc1-c1ccc(C(F)(F)F)cc1` [Compound 3k, 5-((1-(4-Fluorophenyl)-3-(4-(trifluoromethyl)phenyl)-1H-pyrazol-4-yl)methylene)-2-thioxoimidazolidin-4-one] here?
**A.** The value was 1.3 fold.

**Q.** And the “fold increase in the percentage of necrotic cells compared to Enzalutamide” value [2]?
**A.** Its value is 1.9 fold.

**Q.** What about the “Safety Index Wi38/LNCaP” value [1] of the same compound?
**A.** The value was 3.8.

**Q.** Which “Safety Index Wi38/LNCaP” value [1] does the source give for `Cc1ccc(-c2nn(-c3ccc(F)cc3)cc2C=C2NC(=S)NC2=O)cc1` [Compound 3m, 5-((1-(4-Fluorophenyl)-3-(p-tolyl)-1H-pyrazol-4-yl)methylene)-2-thioxoimidazolidin-4-one] here?
**A.** The value was 2.2.

**Q.** For `O=C1NC(=S)NC1=Cc1cn(-c2ccc(C(F)(F)F)cc2)nc1-c1ccc(F)cc1` [Compound 3o, 5-((3-(4-Fluorophenyl)-1-(4-(trifluoromethyl)phenyl)-1H-pyrazol-4-yl)methylene)-2-thioxoimidazolidin-4-one], which “Safety Index Wi38/LNCaP” value [1] is on record?
**A.** Its value is 1.9.

**Q.** With `O=C1NC(=S)NC1=Cc1cn(-c2ccc(C(F)(F)F)cc2)nc1-c1ccc(C(F)(F)F)cc1` [Compound 3p, 5-((1,3-Bis(4-(trifluoromethyl)phenyl)-1H-pyrazol-4-yl)methylene)-2-thioxoimidazolidin-4-one] as the compound, how does the “Safety Index Wi38/LNCaP” value [1] read?
**A.** Its value is 3.4.
